From PubChem BioAssay AID588590 (National Center for Advancing Translational Sciences (NCATS), 2011)
Screen size: about 390,000 compounds; about 4,000 (1%) were called active. This list was built around the results that the source calls inconclusive (neither active nor inactive); the mix of calls is not that of the screen. The call rests on the fitted dose curve; in most records, active means well fitted inhibition curve with a large enough effect; inconclusive means small, poorly fitted or top-dose-only effect, or another doubt; inactive means no such curve, though single readings can be large or run the other way. Where the call is inconclusive, the potency comes from a doubtful curve fit.

The chains behind the UniProt entries cited, without tags or fusion partners. Where a name states a change or a piece, a line headed by the entry shows the natural chain unless it says otherwise.
UniProt Q9UNA4: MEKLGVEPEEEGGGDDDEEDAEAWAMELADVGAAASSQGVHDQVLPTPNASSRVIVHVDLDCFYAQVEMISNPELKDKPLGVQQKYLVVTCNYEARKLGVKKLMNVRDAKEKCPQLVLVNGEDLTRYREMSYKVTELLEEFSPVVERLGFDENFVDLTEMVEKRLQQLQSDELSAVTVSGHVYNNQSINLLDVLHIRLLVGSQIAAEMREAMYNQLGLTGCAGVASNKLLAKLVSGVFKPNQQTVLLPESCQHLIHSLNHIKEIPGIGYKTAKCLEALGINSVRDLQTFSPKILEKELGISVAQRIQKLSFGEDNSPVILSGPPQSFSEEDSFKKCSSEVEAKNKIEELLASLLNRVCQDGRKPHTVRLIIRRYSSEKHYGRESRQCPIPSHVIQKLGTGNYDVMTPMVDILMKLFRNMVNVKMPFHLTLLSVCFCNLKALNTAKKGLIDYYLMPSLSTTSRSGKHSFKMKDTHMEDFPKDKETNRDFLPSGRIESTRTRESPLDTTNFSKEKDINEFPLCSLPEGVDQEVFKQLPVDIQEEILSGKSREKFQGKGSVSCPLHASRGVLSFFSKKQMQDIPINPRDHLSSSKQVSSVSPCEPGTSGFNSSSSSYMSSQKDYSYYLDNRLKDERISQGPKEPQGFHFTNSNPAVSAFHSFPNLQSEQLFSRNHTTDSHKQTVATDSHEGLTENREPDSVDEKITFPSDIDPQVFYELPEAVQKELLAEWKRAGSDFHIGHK

biological target: DNA polymerase iota (Homo sapiens) (UniProt Q9UNA4); assay: qHTS for Inhibitors of Polymerase Iota; conditions: Pol iota fluorescent replication assay, 10 min; series mostly up to 115 µM; activity, negative = inhibition: at the top concentration
Method in brief: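 Pol iota at 10 nM preincubated 15 min with compounds at room temperature; reaction started with fluorescent substrate, 50 nM final. Fluorescence read kinetically at 0 and 10 min; buffer-only wells as negative control.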
Potency means the concentration at half of the fitted maximal effect.

SMILES	Potency	activity, negative = inhibition
Cc1ccc(NCc2nnc(SCc3ccc(C#N)cc3)n2Cc2ccco2)c(C)c1	inconclusive: 39.8 µM [inhibitor, partial curve, poor fit]	
COc1ccc(C)cc1NC(=O)c1cc(S(=O)(=O)N2CCC3(CC2)OCCO3)ccc1F	inconclusive: 56.2 µM [inhibitor, partial curve, poor fit]	
CCN(c1ccccc1)S(=O)(=O)c1ccc(Cl)c(NC(=O)CN(C)Cc2cccc(F)c2)c1		inactive: 10.9%
Cc1cccc(NC(=O)CN2C(=O)N/C(=C/c3cc(C)n(-c4ccncc4)c3C)C2=O)c1	inconclusive: 15.8 µM [inhibitor, full curve]	
C#CCNC(=O)C1=C[C@@H](c2ccccc2)C[C@@H](OCc2ccc(CO)cc2)O1		inactive: 38.3%
Cc1ccc(C)c(NC(=O)CSc2nnc(CNC(=O)c3ccccc3)n2-c2ccccc2)c1		inactive: 12%
Cc1ccc(NC(=S)NNC(=S)NCc2ccccc2)cc1	inconclusive: 10 µM [inhibitor, partial curve, poor fit]	
O=C1Nc2cc(S(=O)(=O)N3CCCC3)ccc2N2CCCC12 (centres undefined)	inconclusive: 10 µM [inhibitor, partial curve, poor fit]	
Cn1cc(S(=O)(=O)NC[C@H]2O[C@@H](n3cnc4c(N)ncnc43)[C@H](O)[C@@H]2O)cn1	inconclusive: 3.16 µM [inhibitor, partial curve, poor fit]	
CCC(=O)NC(NC(=S)Nc1c(C)n(C)n(-c2ccccc2)c1=O)C(Cl)(Cl)Cl (centres undefined)	inconclusive: 89.1 µM [inhibitor, single point]	
COc1cc(C#CC#CCN2CCCCC2)ccc1O	inconclusive: 10 µM [inhibitor, partial curve, poor fit]	
CCCN[C@H]1CCc2nc(N)sc2C1	inconclusive: 50.1 µM [inhibitor, partial curve, poor fit]	
C#CCn1cc(Cl)cc(C(=O)Nc2ccccc2)c1=O	inconclusive: 3.16 µM [inhibitor, full curve, poor fit]	
Cc1ccc(O)c(-c2cc(C(=O)Nc3cccnc3)[nH]n2)c1	inconclusive: 50.1 µM [inhibitor, partial curve, poor fit]	
Cc1c(C#N)c(O)n(C)c(=O)c1N=Nc1ccc(S(N)(=O)=O)cc1	inconclusive: 39.8 µM [inhibitor, single point]	
COn1c(SCc2cccnc2)nc2ccccc2c1=O	inconclusive: 28.2 µM [inhibitor, partial curve, poor fit]	
CCOC(=O)c1sc(N(Cc2ccccc2)C(=O)CCl)nc1C	inconclusive: 10 µM [inhibitor, full curve]	
O=C(O)c1cccc(S(=O)(=O)Nc2cccc(S(=O)(=O)N3CCCCCC3)c2)c1	active: 89.1 µM	
COC(=O)c1c(N)n(-c2ccc(NC(C)=O)cc2)c2nc3ccccc3nc12	inconclusive: 25.1 µM [inhibitor, single point]	
CN(CC(=O)Nc1cccc(F)c1)C(=O)c1cc2c(s1)CCCCC2	inconclusive: 89.1 µM [inhibitor, single point]	
Cn1cccc1-c1cc2n(n1)CCC(=O)N2CCCC(=O)NCc1cccc(Cl)c1		inactive: 3.34%
CCOc1ccc(N(CC(=O)Nc2cccc(OC)c2)S(C)(=O)=O)cc1	inconclusive: 79.4 µM [inhibitor, partial curve, poor fit]	
O=C(O)CCN1Cc2ccccc2C1=O	inconclusive: 0.708 µM [inhibitor, full curve, poor fit]	

SMILES	Potency	activity, negative = inhibition
Cc1cc(C(=O)Nc2ccccc2C(=O)O)c(C)o1	inconclusive: 100 µM [inhibitor, single point]	
C[n+]1ccc(C(c2c[nH]c3ccccc23)c2cc[n+](C)c3ccccc23)c2ccccc21	active: 89.1 µM	
O=[N+]([O-])c1ccccc1CNC1CCCc2ccccc21 (centres undefined)	inconclusive: 2.82 µM [inhibitor, full curve, poor fit]	
O=C(NNC(=O)c1nn(-c2ccc(F)cc2)ccc1=O)c1ccc(C(F)(F)F)cc1	inconclusive: 3.16 µM [inhibitor, partial curve, poor fit]	
CC1(c2ccccc2)NC(=O)N(NC(=O)CSc2n[nH]c(N)n2)C1=O (centres undefined)	inconclusive: 8.91 µM [inhibitor, partial curve, poor fit]	
O=C(c1ccccc1)N(c1ccccc1)c1ccccc1O		inactive: -25.6%
Cc1ccc(-n2nnnc2SCC(=O)NCCc2ccccc2)cc1C		inactive: 7.16%
COC(=O)c1ccc(COc2cc(C)ccc2C)o1		inactive: -0.0472%
COc1ccccc1C1CCN(C(=O)C2CCCCC2)CC1	inconclusive: 79.4 µM [inhibitor, single point]	
CCOc1cc(C2CC(=O)NC3=C2C(=O)C(C(=O)OC)C(C)C3)cc(Br)c1O (centres undefined)		inactive: -8.86%
Cc1ccc(-c2nc(N)s[n+]2-c2ccccc2)cc1		inactive: 10.4%
C=CCc1ccccc1OCCSc1nc(-c2ccccc2F)nc2cc(=O)[nH]n12	inconclusive: 79.4 µM [inhibitor, partial curve]	
COc1ccccc1/C=C/C(=O)Nc1nc2n(n1)C(c1ccc(F)cc1)C=C(c1ccccc1)N2 (centres undefined)		inactive: 14%
Cc1onc(-c2c(Cl)cccc2Cl)c1C(=O)N1CCSCC1		inactive: 46.9%
COC(=O)c1ccc(C(=O)OC)c(NC(=O)CSCc2ccc(Br)cc2)c1	inconclusive: 28.2 µM [inhibitor, partial curve, poor fit]	
COc1ccc(C)cc1S(=O)(=O)N1CCCC(C(=O)N2CCN(c3ccccc3)CC2)C1 (centres undefined)		inactive: 5.58%
O=C(O)c1cccc(NC(=O)c2ccc3c(c2)C(=O)N(c2cccc([N+](=O)[O-])c2)C3=O)c1		inactive: -2.05%
CC(Nc1n[nH]c(=S)[nH]c1=O)C(=O)OCc1ccccc1 (centres undefined)	inconclusive: 10 µM [inhibitor, partial curve, poor fit]	
COc1cc(C)c(C(C)C)cc1S(=O)(=O)n1cnc(C)c1	inconclusive: 25.1 µM [inhibitor, single point]	
O=c1[nH]c(C2CCCN(S(=O)(=O)c3ccccc3)C2)nc2c1nnn2Cc1ccccc1Br (centres undefined)	inactive	
COc1ccc(-c2ccc(=O)n(CC(=O)Nc3cc(OC)ccc3OC)n2)cc1		inactive: 22.3%
COc1ccc(/C=N/NC2=NCCCCC2)cc1	inconclusive: 17.8 µM [inhibitor, partial curve, poor fit]	
COC(=O)c1ccc(C(NC(=O)OCc2ccccc2)/C(F)=C/[C@@H](C)C(=O)O)cc1 (some centres undefined)	inconclusive: 100 µM [inhibitor, single point]	

Arranged by molecular weight (high to low): 3 of the compounds above
SMILES	Potency	activity, negative = inhibition
COC(=O)c1ccc(C(=O)OC)c(NC(=O)CSCc2ccc(Br)cc2)c1	inconclusive: 28.2 µM [inhibitor, partial curve, poor fit]	
C=CCc1ccccc1OCCSc1nc(-c2ccccc2F)nc2cc(=O)[nH]n12	inconclusive: 79.4 µM [inhibitor, partial curve]	
COc1ccc(-c2ccc(=O)n(CC(=O)Nc3cc(OC)ccc3OC)n2)cc1		inactive: 22.3%

Nothing new here: entries from further up.
SMILES	Potency	activity, negative = inhibition
COc1ccc(C)cc1S(=O)(=O)N1CCCC(C(=O)N2CCN(c3ccccc3)CC2)C1 (centres undefined)		inactive: 5.58%
O=C(O)c1cccc(NC(=O)c2ccc3c(c2)C(=O)N(c2cccc([N+](=O)[O-])c2)C3=O)c1		inactive: -2.05%
CC(Nc1n[nH]c(=S)[nH]c1=O)C(=O)OCc1ccccc1 (centres undefined)	inconclusive: 10 µM [inhibitor, partial curve, poor fit]	

Next results:

SMILES	Potency	activity, negative = inhibition
COc1ccc(S(=O)(=O)Nc2cccc3c2O[C@H](CN(C)C(=O)Nc2ccc4c(c2)OCO4)[C@@H](C)CN([C@H](C)CO)C3=O)cc1	inconclusive: 17.8 µM [inhibitor, partial curve, poor fit]	
COc1ccc(NC(=O)Nc2c(C)n(C)n(-c3ccccc3)c2=O)cc1	inconclusive: 89.1 µM [inhibitor, single point]	
CCN(CC)CCNC(=O)c1cc2c(=O)n(C)c3ccccc3c2s1		inactive: 6.75%
N#CC1=C(N)C2=C(N3CCCCC3)CCCC2C1(C#N)C#N (centres undefined)	inconclusive: 10 µM [inhibitor, partial curve, poor fit]	
O=c1[nH]cnc2c1ncn2[C@H]1C[C@H](O)[C@@H](CO)O1		inactive: 9.31%
Cc1cccc(C(=O)NC(=S)NNC(=O)Cc2ccccc2)c1		inactive: 69.8%
Cc1noc(C)c1C(=O)Nc1nc(C23CC4CC(CC(C4)C2)C3)cs1	inconclusive: 6.31 µM [inhibitor, partial curve, poor fit]	
Cc1nn(C)c(C(=O)NNC(=S)NCc2ccco2)c1Br	inconclusive: 20 µM [inhibitor, partial curve, poor fit]	
N#C/C(=C\c1ccc(N2CCOCC2)o1)c1nc2ccccc2[nH]1		inactive: -12.7%
O=C(COC(=O)c1ccc([N+](=O)[O-])o1)Nc1ccc(Br)cc1F		inactive: -18.4%
CCOP(=O)(c1ccc(N(C)C)cc1)C(O)c1cccnc1 (centres undefined)		inactive: 46.1%
Cc1cc(NC(=O)CN2CCN(c3ccc(O)cc3)CC2)no1	inconclusive: 100 µM [inhibitor, partial curve, poor fit]	
Cn1c(=O)c2[nH]c(N=NNc3ccccc3F)nc2n(C)c1=O	active: 25.1 µM	
O=C(OCc1cc(=O)n2c(n1)sc1ccccc12)c1ccc(O)cc1O	active: 39.8 µM	
CC(=O)C1=C(O)C(=O)N(c2ccc(Br)cn2)C1c1ccc(F)cc1 (centres undefined)	inconclusive: 100 µM [inhibitor, partial curve, poor fit]	
Cc1c(OCC(=O)NC(Cc2ccc(Cl)cc2)C(=O)O)ccc2c3c(c(=O)oc12)CCC3 (centres undefined)		inactive: -1.47%
O=c1[nH]c(C2CCN(S(=O)(=O)c3ccccc3C(F)(F)F)CC2)nc2c1nnn2Cc1cccc(F)c1		inactive: -0.625%
COc1ccc(CN=Cc2[nH]c3ccc(Br)c(Cl)c3c2O)cc1	inconclusive: 20 µM [inhibitor, single point]	
Cc1sc2ccccc2[n+]1CCCCI	inconclusive: 25.1 µM [inhibitor, partial curve, poor fit]	
OC1C(Br)=Cc2ccccc21 (centres undefined)		inactive: 5.44%
Cc1ccnc(SCC(=O)Nc2sccc2C#N)n1	inconclusive: 56.2 µM [inhibitor, partial curve, poor fit]	
Cc1cccc(N(Cc2cc(=O)[nH]c3ccccc23)C(=O)CCl)c1	inconclusive: 39.8 µM [inhibitor, single point]	
CCN1CCN(C2=CC3=CC(=C(C#N)C#N)CCC3CC2)CC1 (centres undefined)	inconclusive: 14.1 µM [inhibitor, partial curve, poor fit]	
